{"source": "patent US7348317B2", "about": "“Aqueous compositions containing metronidazole” (Dow Pharmaceutical Sciences, priority 2001, dated 2008)", "experiment": "Physical stability of 1.0% metronidazole gel solutions with BCD and niacinamide at 5° C.", "type": "physicochemical", "conditions": "niacinamide at about 3%, aqueous gel", "method": "Various gel solutions of Table 1 were prepared with a concentration of 1.0% metronidazole and containing either 0.5% or 1.0% BCD and differing concentrations of niacinamide. The gels were maintained at 5° C. for one week to observe for precipitate or crystal formation.", "note": "The name of at least one read-out is uncertain.", "data": [{"smiles": "NC(=O)c1cccnc1", "note": "[niacinamide]", "values": [{"measurement": "increase of physically stable solubility of MTZ by niacinamide relative to increase by maximum soluble concentration of BCD", "result": "about 3 times"}]}]}
